Cleaved PARP in drug-treated melanoma cells

Compounds and concentrations:
fingolimod, 10 µM: CCCCCCCCc1ccc(CCC(N)(CO)CO)cc1
IMD-0354, 0.08 µM: O=C(Nc1cc(C(F)(F)F)cc(C(F)(F)F)c1)c1cc(Cl)ccc1O
lenalidomide, 5 µM: Nc1cccc2c1CN(C1CCC(=O)NC1=O)C2=O (stereo not shown)
PF-04217903, 5 µM: OCCn1cc(-c2cnc3nnn(Cc4ccc5ncccc5c4)c3n2)cn1
tanespimycin, 0.01 µM: C=CCNC1=C2C[C@@H](C)C[C@H](OC)[C@H](O)[C@@H](C)/C=C(\C)[C@H](OC(N)=O)[C@@H](OC)/C=C\C=C(/C)C(=O)NC(=CC1=O)C2=O
PLX4720, 0.4 µM: CCCS(=O)(=O)Nc1ccc(F)c(C(=O)c2c[nH]c3ncc(Cl)cc23)c1F
SNS-032, 0.05 µM: CC(C)(C)c1cnc(CSc2cnc(NC(=O)C3CCNCC3)s2)o1
decitabine, 0.5 µM: Nc1ncn([C@H]2C[C@H](O)[C@@H](CO)O2)c(=O)n1
vismodegib, 5 µM: CS(=O)(=O)c1ccc(C(=O)Nc2ccc(Cl)c(-c3ccccn3)c2)c(Cl)c1
SU6656, 2 µM: CN(C)S(=O)(=O)c1ccc2c(c1)/C(=C/c1cc3c([nH]1)CCCC3)C(=O)N2
vatalanib, 10 µM: Clc1ccc(Nc2nnc(Cc3ccncc3)c3ccccc23)cc1
KU-0063794, 0.1 µM: COc1ccc(-c2ccc3c(N4CCOCC4)nc(N4C[C@@H](C)O[C@@H](C)C4)nc3n2)cc1CO
sorafenib, 2 µM: CNC(=O)c1cc(Oc2ccc(NC(=O)Nc3ccc(Cl)c(C(F)(F)F)c3)cc2)ccn1

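Human melanoma cells were exposed to two drugs together for 72 h in 1,536-well plates and read by automated microscopy after fixing and staining. Values are the share of nuclei positive for cleaved PARP as a percentage of the same share in the DMSO control: 100 is the control level, higher means more apoptosis. Every drug was used at one fixed concentration, the higher of two screened. No replicate spread is given; individual values may be noisy. Basal and induced levels differ widely between cell lines.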 An unselected part of the screen is shown. A dash means that no value is listed here.

Pair,WM451Lu,MEL-HO,COLO 829,COLO 792,WM3526,RPMI-7951,SK-MEL-2,LB2518-MEL,501mel,SK-MEL-28,A101D
lenalidomide and decitabine,93.6,48.1,236,215,94.2,276,152,162,-,107,75.2
SU6656 and vismodegib,106,79.8,75.2,59.2,58.4,42.8,48.6,59.5,-,79.4,110
lenalidomide and vatalanib,84.7,64.2,119,124,108,73.0,71.9,82.8,-,110,75.5
fingolimod and SU6656,8280,1080,264,12300,4970,997,25400,14100,-,18600,1370
SNS-032 and SU6656,150,87.6,149,94.5,116,96.0,104,153,-,209,207
SU6656 and vatalanib,196,117,232,422,447,150,68.9,66.0,-,327,80.4
IMD-0354 and KU-0063794,171,309,266,86.4,151,39.9,76.6,119,82.8,142,58.5
decitabine and SNS-032,161,80.5,227,171,151,137,265,270,-,50.3,203
tanespimycin and PLX4720,345,32.5,67.1,42.1,120,316,45.6,91.7,-,128,61.4
KU-0063794 and PF-04217903,110,60.2,37.6,303,225,120,66.1,381,107,192,47.0
SNS-032 and PF-04217903,183,136,153,110,180,173,175,73.1,-,99.6,241
tanespimycin and vismodegib,59.3,97.4,242,114,90.8,444,112,76.2,-,49.0,84.2
fingolimod and PLX4720,568,3260,173,9580,2620,6000,12100,21100,-,4990,1460
SU6656 and PLX4720,219,128,32.3,77.8,224,94.8,120,151,-,57.4,41.0
PF-04217903 and lenalidomide,180,29.4,242,143,234,114,87.2,44.0,-,101,147
PF-04217903 and sorafenib,58.7,68.5,159,78.8,127,54.5,114,128,-,64.6,49.4
IMD-0354 and PF-04217903,70.1,71.6,88.0,38.9,80.2,60.5,88.6,32.7,-,47.4,175
PLX4720 and PF-04217903,298,280,349,89.7,188,117,92.9,92.8,-,96.4,106
vatalanib and vismodegib,216,70.2,189,21.2,117,178,145,95.0,-,93.5,84.6
SNS-032 and fingolimod,2150,7810,164,12500,5680,-,4370,-,-,-,5090
tanespimycin and sorafenib,117,201,252,87.0,144,467,196,118,-,213,149
sorafenib and PLX4720,257,49.8,52.3,55.6,219,189,58.9,84.1,-,46.6,95.6
sorafenib and vismodegib,42.6,185,90.0,73.5,129,86.6,174,96.0,-,21.4,59.8
vismodegib and decitabine,148,154,59.9,92.9,79.0,181,66.6,65.8,-,78.8,209
lenalidomide and vismodegib,33.1,75.6,57.8,136,41.6,28.1,142,50.4,-,114,57.5
IMD-0354 and fingolimod,1950,283,42.7,204,129,5390,9950,61500,-,5410,3760
SNS-032 and lenalidomide,81.0,197,130,37.6,115,228,389,129,-,350,111

Repeated from the top, 3 entries:

Pair,WM451Lu,MEL-HO,COLO 829,COLO 792,WM3526,RPMI-7951,SK-MEL-2,LB2518-MEL,501mel,SK-MEL-28,A101D
lenalidomide and decitabine,93.6,48.1,236,215,94.2,276,152,162,-,107,75.2
SU6656 and vismodegib,106,79.8,75.2,59.2,58.4,42.8,48.6,59.5,-,79.4,110
lenalidomide and vatalanib,84.7,64.2,119,124,108,73.0,71.9,82.8,-,110,75.5

Data from the primary screen of doi:10.1371/journal.pone.0140310, rounded.